According to the supplement of paper PMC10849652:
Some of the results follow.

The chains behind the UniProt entries cited, without tags or fusion partners. Where a name states a change or a piece, a line headed by the entry shows the natural chain unless it says otherwise.
UniProt Q9UI08, whole entry, looked up: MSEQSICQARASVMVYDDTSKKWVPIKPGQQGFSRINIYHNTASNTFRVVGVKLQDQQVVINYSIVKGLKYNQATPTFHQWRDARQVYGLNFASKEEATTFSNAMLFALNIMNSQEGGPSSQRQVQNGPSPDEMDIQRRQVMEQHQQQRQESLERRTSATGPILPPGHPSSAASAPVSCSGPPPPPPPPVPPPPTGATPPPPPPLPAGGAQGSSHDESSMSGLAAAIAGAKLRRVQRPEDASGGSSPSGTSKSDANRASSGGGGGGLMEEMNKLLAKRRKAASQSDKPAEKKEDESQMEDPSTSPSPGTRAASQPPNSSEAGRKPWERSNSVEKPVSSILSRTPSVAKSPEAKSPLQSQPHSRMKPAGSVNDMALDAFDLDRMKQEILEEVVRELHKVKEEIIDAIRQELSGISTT
UniProt Q9NSI2: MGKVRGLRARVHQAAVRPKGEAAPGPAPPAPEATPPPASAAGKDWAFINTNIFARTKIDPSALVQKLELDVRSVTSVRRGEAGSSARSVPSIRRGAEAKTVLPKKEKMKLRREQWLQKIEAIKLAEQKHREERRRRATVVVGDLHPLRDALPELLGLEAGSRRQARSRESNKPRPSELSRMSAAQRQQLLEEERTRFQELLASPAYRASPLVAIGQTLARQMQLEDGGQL
UniProt Q96A65: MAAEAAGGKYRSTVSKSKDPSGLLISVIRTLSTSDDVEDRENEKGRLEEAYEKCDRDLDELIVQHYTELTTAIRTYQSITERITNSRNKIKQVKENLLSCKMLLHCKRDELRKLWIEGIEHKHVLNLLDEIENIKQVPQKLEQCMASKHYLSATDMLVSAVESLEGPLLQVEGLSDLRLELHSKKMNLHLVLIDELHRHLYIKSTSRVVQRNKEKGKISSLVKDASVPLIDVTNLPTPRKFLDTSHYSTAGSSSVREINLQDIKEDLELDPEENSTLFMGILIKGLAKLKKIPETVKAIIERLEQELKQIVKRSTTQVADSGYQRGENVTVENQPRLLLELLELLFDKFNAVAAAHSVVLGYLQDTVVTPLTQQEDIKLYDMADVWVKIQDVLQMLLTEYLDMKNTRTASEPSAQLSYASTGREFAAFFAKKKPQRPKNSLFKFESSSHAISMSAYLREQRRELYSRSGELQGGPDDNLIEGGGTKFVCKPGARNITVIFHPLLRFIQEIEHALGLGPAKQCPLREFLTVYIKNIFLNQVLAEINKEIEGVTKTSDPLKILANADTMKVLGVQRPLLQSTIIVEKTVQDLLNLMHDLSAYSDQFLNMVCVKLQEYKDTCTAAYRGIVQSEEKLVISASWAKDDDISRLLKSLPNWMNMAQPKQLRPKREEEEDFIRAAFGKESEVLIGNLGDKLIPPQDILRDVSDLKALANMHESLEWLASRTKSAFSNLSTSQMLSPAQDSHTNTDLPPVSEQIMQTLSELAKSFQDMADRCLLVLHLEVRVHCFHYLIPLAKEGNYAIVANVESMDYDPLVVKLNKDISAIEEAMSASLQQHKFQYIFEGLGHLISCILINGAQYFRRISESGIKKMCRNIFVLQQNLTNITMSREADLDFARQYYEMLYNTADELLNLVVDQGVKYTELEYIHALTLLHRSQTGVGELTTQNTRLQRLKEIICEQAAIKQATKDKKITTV
UniProt O60447: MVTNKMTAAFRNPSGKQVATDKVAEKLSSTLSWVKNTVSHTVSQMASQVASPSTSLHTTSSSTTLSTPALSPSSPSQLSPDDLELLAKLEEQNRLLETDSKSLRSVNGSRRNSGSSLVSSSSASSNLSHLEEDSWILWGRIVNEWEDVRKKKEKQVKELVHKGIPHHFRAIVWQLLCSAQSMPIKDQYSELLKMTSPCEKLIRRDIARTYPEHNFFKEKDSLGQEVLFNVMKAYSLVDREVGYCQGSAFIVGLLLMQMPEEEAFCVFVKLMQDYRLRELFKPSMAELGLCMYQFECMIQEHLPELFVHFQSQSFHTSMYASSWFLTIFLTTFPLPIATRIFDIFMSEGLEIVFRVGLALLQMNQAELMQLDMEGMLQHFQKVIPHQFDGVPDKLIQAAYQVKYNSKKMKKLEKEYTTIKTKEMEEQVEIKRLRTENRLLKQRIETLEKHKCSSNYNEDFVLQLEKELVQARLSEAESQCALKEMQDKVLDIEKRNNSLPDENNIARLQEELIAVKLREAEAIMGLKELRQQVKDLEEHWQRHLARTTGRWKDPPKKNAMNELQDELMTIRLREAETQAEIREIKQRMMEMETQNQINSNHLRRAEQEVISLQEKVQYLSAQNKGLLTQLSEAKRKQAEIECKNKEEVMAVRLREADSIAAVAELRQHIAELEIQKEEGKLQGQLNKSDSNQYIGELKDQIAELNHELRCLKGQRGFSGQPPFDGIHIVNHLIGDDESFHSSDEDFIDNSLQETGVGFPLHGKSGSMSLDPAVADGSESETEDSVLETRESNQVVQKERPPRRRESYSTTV
UniProt Q14320: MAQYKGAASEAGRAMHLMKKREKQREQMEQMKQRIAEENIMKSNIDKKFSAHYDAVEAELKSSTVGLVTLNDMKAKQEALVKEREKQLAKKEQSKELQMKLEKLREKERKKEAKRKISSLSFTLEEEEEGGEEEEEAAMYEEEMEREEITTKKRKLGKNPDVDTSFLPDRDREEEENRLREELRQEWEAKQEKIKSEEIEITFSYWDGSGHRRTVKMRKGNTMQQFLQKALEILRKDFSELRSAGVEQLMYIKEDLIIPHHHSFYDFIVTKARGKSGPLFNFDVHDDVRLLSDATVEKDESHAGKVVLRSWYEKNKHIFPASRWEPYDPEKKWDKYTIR
UniProt Q8N128: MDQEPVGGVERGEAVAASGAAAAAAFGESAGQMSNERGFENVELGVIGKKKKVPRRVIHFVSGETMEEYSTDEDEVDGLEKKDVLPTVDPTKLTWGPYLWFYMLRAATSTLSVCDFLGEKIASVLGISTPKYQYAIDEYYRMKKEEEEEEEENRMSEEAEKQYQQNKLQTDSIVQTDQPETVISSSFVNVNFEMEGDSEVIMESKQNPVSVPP
UniProt Q6IPR1: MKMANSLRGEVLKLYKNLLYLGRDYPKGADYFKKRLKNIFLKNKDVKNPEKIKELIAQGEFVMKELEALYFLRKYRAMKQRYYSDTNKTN
UniProt Q96PV7: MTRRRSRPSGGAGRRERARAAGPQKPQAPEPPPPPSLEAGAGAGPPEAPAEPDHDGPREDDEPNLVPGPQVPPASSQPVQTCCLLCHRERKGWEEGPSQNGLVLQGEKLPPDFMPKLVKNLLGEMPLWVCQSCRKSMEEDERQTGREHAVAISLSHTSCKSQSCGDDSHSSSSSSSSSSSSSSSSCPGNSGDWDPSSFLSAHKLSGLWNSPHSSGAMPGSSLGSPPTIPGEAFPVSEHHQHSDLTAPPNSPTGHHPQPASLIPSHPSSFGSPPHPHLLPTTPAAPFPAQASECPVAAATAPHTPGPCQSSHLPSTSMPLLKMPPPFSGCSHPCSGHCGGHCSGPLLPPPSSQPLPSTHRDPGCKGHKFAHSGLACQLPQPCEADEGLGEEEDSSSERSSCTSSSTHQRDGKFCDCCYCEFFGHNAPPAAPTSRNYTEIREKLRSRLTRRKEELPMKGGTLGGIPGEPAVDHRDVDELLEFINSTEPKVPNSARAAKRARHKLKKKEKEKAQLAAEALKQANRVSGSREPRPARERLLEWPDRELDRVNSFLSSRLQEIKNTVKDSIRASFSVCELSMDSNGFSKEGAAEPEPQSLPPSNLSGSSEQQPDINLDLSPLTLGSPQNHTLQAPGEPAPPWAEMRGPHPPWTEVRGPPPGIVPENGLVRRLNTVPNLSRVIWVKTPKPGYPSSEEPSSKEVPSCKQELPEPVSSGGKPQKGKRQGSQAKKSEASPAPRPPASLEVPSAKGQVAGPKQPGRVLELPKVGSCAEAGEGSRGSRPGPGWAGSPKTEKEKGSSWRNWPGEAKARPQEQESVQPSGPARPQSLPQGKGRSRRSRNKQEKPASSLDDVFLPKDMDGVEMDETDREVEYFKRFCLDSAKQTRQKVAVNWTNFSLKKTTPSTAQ
UniProt Q9NV70: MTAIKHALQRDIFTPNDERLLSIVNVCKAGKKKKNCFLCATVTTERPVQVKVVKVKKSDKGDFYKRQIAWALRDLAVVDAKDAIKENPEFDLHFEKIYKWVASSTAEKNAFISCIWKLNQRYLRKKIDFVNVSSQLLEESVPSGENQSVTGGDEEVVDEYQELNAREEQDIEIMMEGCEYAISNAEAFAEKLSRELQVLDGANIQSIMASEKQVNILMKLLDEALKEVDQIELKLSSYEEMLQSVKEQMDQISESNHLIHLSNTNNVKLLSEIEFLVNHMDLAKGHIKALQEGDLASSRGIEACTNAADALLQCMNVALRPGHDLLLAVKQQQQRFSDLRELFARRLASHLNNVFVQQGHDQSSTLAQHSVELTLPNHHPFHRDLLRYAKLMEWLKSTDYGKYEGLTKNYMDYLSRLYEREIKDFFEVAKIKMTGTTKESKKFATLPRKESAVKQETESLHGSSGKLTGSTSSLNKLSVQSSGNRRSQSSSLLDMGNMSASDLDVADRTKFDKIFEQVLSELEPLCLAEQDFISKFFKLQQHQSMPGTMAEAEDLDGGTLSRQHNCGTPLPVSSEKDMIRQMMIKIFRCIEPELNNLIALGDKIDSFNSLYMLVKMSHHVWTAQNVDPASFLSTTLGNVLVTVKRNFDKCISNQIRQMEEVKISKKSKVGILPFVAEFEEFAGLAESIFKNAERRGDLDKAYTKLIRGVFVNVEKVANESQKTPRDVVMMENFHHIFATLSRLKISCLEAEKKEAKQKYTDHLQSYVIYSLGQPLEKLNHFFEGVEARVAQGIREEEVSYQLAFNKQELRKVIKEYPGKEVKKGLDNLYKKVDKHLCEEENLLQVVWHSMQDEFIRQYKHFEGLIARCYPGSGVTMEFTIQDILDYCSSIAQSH

Experiments:
Experiment in all cases: log2 fold change, soluble protein after heating vs DMSO (PISA); higher = thermal stabilisation; K562 lysate, 10 uM; active = over 0.2 and 3.5 SD of the protein, either way, in both replicates (recomputed)
[1] = compound: NCC(=O)Nc1ccc(-n2nc(C(F)(F)F)cc2-c2ccc3c(ccc4ccccc43)c2)cc1
Method in brief: (§1)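 K562 pellets were dounce-homogenised in PBS pH 7.4 containing 1 mM MgCl2, and the crude extract, at 1 mg/mL protein, was exposed to 10 μM compound for 30 min. Aliquots were heated for 3 min across 48°C-58°C, pooled, brought to 0.5% NP-40 at 4°C and spun at 21,000xg for 90 min, with the supernatant taken as soluble protein. TMTpro 16plex LC-MS/MS with equalised channel sums quantified that protein. Values are log-two fold changes in thermal stability relative to solvent controls, taken from duplicates.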

vorinostat = compound: O=C(CCCCCCC(=O)Nc1ccccc1)NO [vorinostat]
Method in brief: as §1

silmitasertib = compound: O=C(O)c1ccc2c(c1)nc(Nc1cccc(Cl)c1)c1ccncc12 [silmitasertib]
Method in brief: as §1

[2] = compound: O=C1NC(=O)C(c2cnc3ccccn23)=C1c1cn2c3c(cc(F)cc13)CN(C(=O)N1CCCCC1)CC2
Method in brief: as §1

entospletinib = compound: c1cn2cc(-c3ccc4cn[nH]c4c3)nc(Nc3ccc(N4CCOCC4)cc3)c2n1 [entospletinib]
Method in brief: as §1

Measured: log2 fold change

EVL isoform 2 (UniProt Q9UI08)
inactive: [1] 0.024 | vorinostat -0.057 | silmitasertib -0.19 | [2] 0.002 | entospletinib -0.053

FAM207A (UniProt Q9NSI2)
inactive: [1] -0.004 | vorinostat 0.024 | silmitasertib -0.036 | [2] -0.057 | entospletinib -0.008

EXOC4 (UniProt Q96A65)
active: vorinostat -0.389
inactive: [1] 0.009 | silmitasertib 0.041 | [2] -0.022 | entospletinib -0.006

EVI5 isoform 2 (UniProt O60447)
inactive: [1] 0.032 | vorinostat -0.316 | silmitasertib -0.037 | [2] 0.167 | entospletinib 0.048

FAM50A (UniProt Q14320)
inactive: [1] -0.033 | vorinostat 0.042 | silmitasertib -0.005 | [2] -0.056 | entospletinib 0.03

FAM177A1 isoform 2 (UniProt Q8N128)
inactive: [1] -0.006 | vorinostat -0.01 | silmitasertib -0.008 | [2] 0.04

ETFRF1 (UniProt Q6IPR1)
inactive: [1] 0.03 | silmitasertib -0.043 | [2] 0.051
active: vorinostat 0.24

FAM193B (UniProt Q96PV7)
inactive: [1] -0.17 | vorinostat -0.017 | silmitasertib 0.047 | [2] 0.018

EXOC1 (UniProt Q9NV70)
active: vorinostat -0.45
inactive: [1] -0.019 | silmitasertib 0.075 | [2] -0.019 | entospletinib 0.019
